Some of the results follow.
System: T1, CTL2-GFP (C. trachomatis L2/434/Bu, GFP-expressing)
T1 construct: L2/434/Bu, GFP-expressing
Design: species or system HeLa; Intracellular C. trachomatis growth in HeLa cells, bulk GFP fluorescence relative to DMSO
Settings: bulk GFP, single well; 28.5 h, 10 µM; inhibitor

| Compound | % of control remaining |
| --- | --- |
| Cc1sc(NC(=O)CN(Cc2cnn(C)c2)C(C)C)c(C#N)c1C [CBK306303] | 132.627% |
| COC(=O)c1sccc1NC(=O)Cn1nnc(-c2ccc(C)cc2)n1 [CBK267183] | 170.766% |
| Brc1ccc2[nH]c3c(c2c1)CCOC31CCN(CC2CCCCO2)CC1 (stereo not drawn) [CBK040648] | 100% |
| CCc1nn(CC(=O)N(CC)CC)c(=O)c2cc3occc3n12 [CBK283656] | 91.6612% |
| Cc1ccc(NC(=O)Nc2cc(S(N)(=O)=O)ccc2C)cc1 [CBK093428] | 96.5145% |
| Cc1onc(-c2ccccc2Cl)c1C(=O)N(C)C [CBK160325] | 195.576% |
| O=C(Nc1ccccc1-n1cnnn1)c1ccccc1Cl [CBK287994] | 132.62% |
| N#CCCN(C(=O)NCCCN1CCCC1=O)C1CCCCC1 [CBK156379] | 170.589% |
| CS(=O)(=O)N1CCCC(C(=O)Nc2nccs2)C1 (stereo not drawn) [CBK287834] | 119.544% |
| O=C(Nc1ccc(C(=O)O)c(O)c1)c1ccc(Br)o1 [CBK270053] | 158.418% |
| CCOc1ccccc1C(=O)Nc1cc(C)c2c(=O)oc3ccccc3c2n1 [CBK291240] | 143.036% |
| Cc1nn(C)cc1S(=O)(=O)Nc1cccc(-c2ccc(F)cc2)c1 [CBK282788] | 101.622% |
| O=C1c2ccccc2C(=O)N1CC1c2ccccc2CCN1S(=O)(=O)c1cccc2nsnc12 (stereo not drawn) [CBK261133] | 114.82% |
| O=[N+]([O-])c1ccccc1S(=O)(=O)N1CCN(S(=O)(=O)c2ccc(F)cc2)CC1 [CBK264236] | 110.467% |
| O=C(C1CC1)N1C[C@@H](c2ccccc2)[C@H](c2cc(C(F)F)[nH]n2)C1 [CBK284791] | 157.72% |
| CCC(NC1CCc2nc(COC)nn2C1)c1ccccc1O (stereo not drawn) [CBK305132] | 116.938% |
| O=C(Cc1cc(F)c(F)c(F)c1)Nc1ccc2[nH]ccc2c1 [CBK159684] | 124.554% |
| CC1CCc2c(sc(NC(=O)CCC(=O)O)c2C(=O)N2CCOCC2)C1 (stereo not drawn) [CBK307550] | 151.828% |
| O=C(c1cccs1)N1C[C@H](c2ccc(F)cc2)[C@H]2CN(Cc3ccc(F)cc3)CC[C@H]21 [CBK285545] | 122.668% |
| CC(C)c1nc(NCc2nnc(C(C)C)n2C)nc(N(C)C)n1 [CBK306402] | 119.147% |
| Cc1nn(CC(=O)N(C)C(C)c2ccncn2)c(=O)c2ccccc12 (stereo not drawn) [CBK307669] | 124.844% |
| O=C1COc2ccccc2C/C=C/CC2(CCCN(C(=O)Cn3ccnc3)C2)CN1 (stereo not drawn) [CBK292050] | 96.1689% |
| OCCc1ccc(Nc2cc(-c3ccsc3)ncn2)cc1 [CBK090769] | 183.665% |
| COc1cc(C2N3CC4(C)CN2CC(C)(C3)C4=O)ccc1O (stereo not drawn) [CBK261453] | 95.9141% |
| CCN1CCN(CCOc2c(OC)cccc2OC)CC1 [CBK267375G] | 169.761% |
| COc1ccc([C@@]23CC[C@@H](NC(=O)c4ccc5occc5c4)C[C@@H]2N(C)CC3)cc1OC [CBK074253T] | 106.569% |

By substructure, the compounds so far containing an aryl methoxy group (three)

| Compound | % of control remaining |
| --- | --- |
| COc1cc(C2N3CC4(C)CN2CC(C)(C3)C4=O)ccc1O (stereo not drawn) [CBK261453] | 95.9141% |
| CCN1CCN(CCOc2c(OC)cccc2OC)CC1 [CBK267375G] | 169.761% |
| COc1ccc([C@@]23CC[C@@H](NC(=O)c4ccc5occc5c4)C[C@@H]2N(C)CC3)cc1OC [CBK074253T] | 106.569% |

Additional structures

| Compound | % of control remaining |
| --- | --- |
| COC(=O)c1sccc1NC(=O)c1ccccc1Cl [CBK066860] | 145.382% |
| Cc1cc(NC(=O)CS(=O)(=O)c2cccc(C(F)(F)F)c2)on1 [CBK306015] | 127.654% |
| CCn1c(N2CCCC(C(=O)NC3CC3)C2)nc2ccccc21 (stereo not drawn) [CBK282419] | 143.335% |
| O=C(Nc1cc(NC(=O)C2C3C=CC(C3)C2C(=O)O)ccc1Cl)c1cccs1 (stereo not drawn) [CBK263959] | 116.851% |
| COC(=O)c1ccc(N2C(=O)CC(SCCc3nc4ccccc4[nH]3)C2=O)cc1 (stereo not drawn) [CBK267188] | 179.54% |
| COc1ccc2[nH]c3c(c2c1)CCN(C=O)C31CCCN(CCC#N)C1 (stereo not drawn) [CBK039445] | 128.071% |
| O=S(=O)(NC[C@H]1C[C@@H]2CC[N@]1C[C@@H]2CN1CCOCC1)c1ccc(Cl)cc1 [CBK288762] | 137.69% |
| O=C(O)C1CC1C(=O)N1CC2(CCCC2)c2c(F)cccc21 (stereo not drawn) [CBK306360] | 104.567% |
| Cc1ccc(Oc2ccc([N+](=O)[O-])cc2)c(Br)c1 [CBK002832] | 125.403% |
| Cc1cc(/C=C\c2nc(O)c([N+](=O)[O-])c(=O)[nH]2)c(C)n1-c1ccc(C(=O)O)cc1 [CBK267334] | 195.829% |
| CCCC/C=C/c1cncc(N2CCN(c3ccccn3)CC2)n1 [CBK037276] | 71.3925% |
| O=C(O)c1ccc(N2CCN(CCO)CC2)c([N+](=O)[O-])c1 [CBK264911C] | 137.113% |
| Cc1ccc(C2=CCN(CC(=O)Nc3ncc(C)s3)CC2)o1 [CBK283383] | 135.899% |
| Cc1cc(NC(=O)C2COc3ccccc3O2)c2ccccc2n1 (stereo not drawn) [CBK115871] | 100.58% |
| C=Cn1ncc(CN2CCC3(O)CCCCC3C2)c1C (stereo not drawn) [CBK283302] | 141.044% |
| COc1cccc(N2CCN(c3cc4n[nH]c(=O)n4cn3)CC2)c1 [CBK300511] | 152.487% |
| CCCn1ncc(CN2CCC3(CC2)CC(C(=O)O)N(C(C)=O)C3)c1C (stereo not drawn) [CBK306612] | 93.5437% |
| O=C(Nc1cnc(-c2cccc(OC(F)(F)F)c2)c(-c2cccnc2)n1)c1ccccn1 [CBK036837] | 152.269% |
| CC(C)(C)C(=O)N[C@H]1C[C@@H](Cc2cc(CN3CCOCC3)on2)C1(C)C [CBK289247] | 152.994% |
| CCC(CN1CCOCC1)n1cncc1-c1[nH]c2ccccc2c1C (stereo not drawn) [CBK281800] | 112.503% |
| CN1C(=O)C(CC(=O)NCCCc2ccc(F)cc2)c2ccccc21 (stereo not drawn) [CBK282474] | 94.5204% |
| c1cc(-c2ccc(Nc3ccc(N4CCOCC4)cc3)nc2)cs1 [CBK036844] | 193.756% |
| O=C(COC(=O)c1ccc2c(c1)C(=O)N(c1cccc(Cl)c1)C2=O)c1ccc(Br)cc1 [CBK262324] | 109.361% |
| c1ccc(-c2nnc(CSc3nnc(-c4ccncc4)[nH]3)o2)cc1 [CBK269962] | 159.202% |
| O=C1CC(N2CCN(Cc3ccc4c(c3)OCO4)CC2)C(=O)N1c1ccc(Br)cc1 (stereo not drawn) [CBK074544] | 123.003% |
| CCOc1ccc(NC(=O)COc2ccccc2/C=C/C(=O)O)cc1 [CBK286935] | 130.523% |

| Compound | % of control remaining |
| --- | --- |
| Cc1ccc(Cl)cc1Nc1nc2nc(C)c(NCC3CC3)cn2n1 [CBK008522] | 121.624% |
| COc1cc(/C=N/n2c(S)nnc2-c2cccnc2)ccc1OCc1ccccc1 [CBK265307] | 114.997% |
| CC(=O)NC(c1ccccn1)C1CCCN(C(=O)C2CCCCC2)C1 (stereo not drawn) [CBK285031] | 108.251% |
| COc1cc(NC(=O)c2ccc3c(c2)C(=O)N(Cc2ccccc2)C3=O)c(C(=O)O)cc1OC [CBK266544] | 164.791% |
| COc1ccc(CCN2CCC(Oc3nccnc3NS(C)(=O)=O)CC2)cc1OC [CBK084285] | 101.476% |
| COc1cccc(C2CC(c3cccc(Cl)c3)n3nc(N)nc3N2)c1 (stereo not drawn) [CBK293966] | 132.339% |
| Cc1cc(C(F)F)nn1CC(=O)N1CCc2ncc(Cl)cc2C1 [CBK284853] | 70.6207% |
| CN(C)c1ccccc1-c1cc(NCCc2ccccn2)ncn1 [CBK037189] | 117.803% |
| O=C(NCc1ccc(Cl)cc1)N1CCN(c2ccccc2)CC1 [CBK155193] | 202.743% |
| CS(=O)(=O)c1sc(C(=O)O)c2c1C=CCC2 [CBK005513] | 118.29% |
| Oc1cc(C(F)(F)F)nc(N2CCc3ccccc3C2)n1 [CBK000344] | 92.5702% |
| COc1ccc(/C=N\N(C)c2nc(-c3ccccc3)cc(-c3ccc(Br)cc3)n2)cc1OC [CBK261799] | 125.039% |
| Cc1coc(C)c1C(=O)CC1(O)C(=O)N(CCCC#N)c2ccccc21 (stereo not drawn) [CBK307383] | 135.01% |
| c1ccc(NCCOc2nccnc2N2CCCC2)cc1 [CBK115814] | 93.3616% |
| Cc1ccc(C(=O)NC(=S)Nc2cccc(NC(=O)c3ccccc3C)c2)cc1 [CBK264049] | 119.022% |
| CCCCn1cnc2c(c1=O)c1nc3ccccc3nc1n2CCc1ccc(OC)cc1 [CBK269538] | 135.667% |
| COC(=O)c1ccc(S(N)(=O)=O)o1 [CBK113186] | 100.994% |
| Nc1ccc(-n2c(-c3ccccc3)c3c(c2-c2ccc(Cl)cc2)C(=O)c2ccccc2C3=O)cc1 [CBK262695] | 100% |
| COc1ccccc1C(=O)N1CCC[C@@H](N)[C@@H]1c1ccccc1F [CBK283458] | 139.229% |
| O=C1CC(c2cc(Br)ccc2F)c2scc(-c3ccccc3F)c2N1 (stereo not drawn) [CBK294440] | 188.783% |
| CCCN1CCC2CN(CCCC(=O)c3ccc(F)cc3)CCN2C1=O (stereo not drawn) [CBK024882C] | 91.3421% |
| O=C1CN(C(=O)NCc2ccc(F)cc2)CCN1 [CBK155869] | 100% |
| O=C(CCn1ccc2ccncc21)NCCc1c[nH]c2ccccc12 [CBK284760] | 88.5237% |
| O=S(=O)(c1cccc(C(F)(F)F)c1)N1CCN(Cc2ccc3c(c2)OCO3)CC1 [CBK074594] | 103.453% |
| COc1c(S(=O)(=O)N2CCN(Cc3ccc4c(c3)OCO4)CC2)ccc(Cl)c1Cl [CBK074423] | 110.855% |
| CCn1ncc(CN2CCN(C(=O)c3nn(C)cc3C(=O)O)CC2)c1C [CBK286870] | 128.675% |
